No constants are given. Whether binding was seen depends on the method and setting. Some binding calls cover weakened binding; strength is not graded here.
Target: recombinant human IGF-I receptor His tag (305-GR-050, R&D SYSTEMS) (human) (UniProt P08069)
Experiment: SPR, Biacore T200

Chains of the proteins cited; added tags and fusions are not shown. Lines headed by an entry give the natural chain unless they say otherwise; changes in a name come on top.
UniProt P08069: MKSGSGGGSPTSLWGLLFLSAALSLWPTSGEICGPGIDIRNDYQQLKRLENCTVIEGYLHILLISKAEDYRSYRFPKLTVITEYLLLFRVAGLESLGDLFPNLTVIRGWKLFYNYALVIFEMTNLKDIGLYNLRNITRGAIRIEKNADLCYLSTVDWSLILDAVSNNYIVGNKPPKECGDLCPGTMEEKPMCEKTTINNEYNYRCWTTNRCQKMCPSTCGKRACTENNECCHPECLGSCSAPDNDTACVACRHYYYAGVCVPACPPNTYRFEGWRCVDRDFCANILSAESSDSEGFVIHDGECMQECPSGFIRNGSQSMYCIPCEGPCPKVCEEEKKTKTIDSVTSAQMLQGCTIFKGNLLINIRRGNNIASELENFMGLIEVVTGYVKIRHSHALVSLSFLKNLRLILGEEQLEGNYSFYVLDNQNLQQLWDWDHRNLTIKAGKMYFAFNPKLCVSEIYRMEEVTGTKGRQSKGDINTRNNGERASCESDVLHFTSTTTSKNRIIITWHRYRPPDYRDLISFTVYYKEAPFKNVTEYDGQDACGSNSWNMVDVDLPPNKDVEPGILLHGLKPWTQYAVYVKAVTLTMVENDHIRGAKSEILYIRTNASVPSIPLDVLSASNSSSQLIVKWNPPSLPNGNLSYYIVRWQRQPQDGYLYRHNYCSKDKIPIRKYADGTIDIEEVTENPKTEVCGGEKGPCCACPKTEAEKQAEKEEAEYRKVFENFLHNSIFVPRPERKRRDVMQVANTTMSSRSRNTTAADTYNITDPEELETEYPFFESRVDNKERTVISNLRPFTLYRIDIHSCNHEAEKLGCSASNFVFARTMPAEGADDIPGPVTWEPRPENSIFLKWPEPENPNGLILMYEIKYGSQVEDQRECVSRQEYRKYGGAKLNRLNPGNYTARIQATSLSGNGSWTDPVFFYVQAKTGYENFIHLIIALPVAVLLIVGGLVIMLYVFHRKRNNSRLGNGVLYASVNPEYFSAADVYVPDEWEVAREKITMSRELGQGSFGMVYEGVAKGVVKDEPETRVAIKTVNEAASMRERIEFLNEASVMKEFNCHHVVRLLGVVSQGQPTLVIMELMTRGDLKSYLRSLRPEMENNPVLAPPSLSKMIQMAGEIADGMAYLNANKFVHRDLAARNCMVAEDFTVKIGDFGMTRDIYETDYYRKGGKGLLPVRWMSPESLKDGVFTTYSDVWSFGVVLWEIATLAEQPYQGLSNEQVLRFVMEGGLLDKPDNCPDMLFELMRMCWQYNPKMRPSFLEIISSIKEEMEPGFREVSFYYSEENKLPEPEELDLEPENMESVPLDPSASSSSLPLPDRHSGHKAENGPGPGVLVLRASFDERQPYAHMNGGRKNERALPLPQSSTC

binding: binds
B1: IGF11-16 (antibody, mouse IgG1, kappa, V domains shown)
VH: QIQLQQPGAELVKPGASVKLSCKAPGYTFTSYWMHWVKQRPGQGLEWIGETNPSNSVTNYNEKFKSKATLTVDKSSSTAYMQLSSLTSEDSAVYYCTIGRGRGFAYWGQGTLVTVSA
VL: DIQMNQSPSSLSASLGDTITITCRASQNINFWLSWCQQKPGNIPKLLIYKASNLHTGVPSRFSGSGSGTDFTLTISSLQPEDIATYYCLQGQSYPYTFGGGTKLEIKR
